The list shows a part of the results. These are further read-outs of the screen, such as a control signal, another cell line or another target. No call is given for them. The list favours compounds with an active or inconclusive main result. Words in brackets tell the shape of the fitted curve; partial curves, single points and poor fits give uncertain potencies.
Assay: qHTS Assay for Lipid Storage Modulators in Drosophila S3 Cells;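 on cell number change: cells counted by Cell Tracker Red CMTPX staining in the red channel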
Conditions: BODIPY lipid droplet fluorescence, 18-24 h; for cell number change: measured here: cell count max response, cells fed with added oleic acid
In short: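 Drosophila S3 cells got compounds at several concentrations plus oleic acid (400 uM solution). Laser-scanning cytometry with 488 nm excitation read lipid droplets at 500-530 nm and cells at 575-640 nm. Percent activity was relative to 20 uM Triacsin C.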

[1] = measured here: cell number channel AC50, cells fed with added oleic acid
[2] = measured here: lipid fluorescence (Fed channel) AC50, cells fed with added oleic acid

Row | SMILES | cell number change [%] | AC50 [1] | AC50 [2]
1 | COc1cccc(-n2c(Cc3cc(=O)[nH]c(=O)[nH]3)nnc2SCC(=O)N2CCC(C)CC2)c1 | -76.3 | 20.6 µM [falling, single point] | 
2 | CCCC(=O)NNc1c2ccccc2nc2ccccc12 | -22.2 | 0.00517 µM [falling, full curve, poor fit] | 6.51 µM [falling, partial curve]
3 | CCN(C1CCCCC1)S(=O)(=O)c1cc(C)ccc1OC | 7.15 |  | 
4 | COc1cccc(N/C(SCc2ccccc2F)=C(/C#N)C(=O)NCc2cccs2)c1 | 15.5 |  | 18.4 µM [rising, single point]
5 | O=c1c2ccccc2[nH]c(=S)n1CCCN1CCOCC1 | 23.3 |  | 0.146 µM [falling, full curve, poor fit]
6 | CCOC(=O)C1CCN(C(=O)c2cccc(NC3=NC4CS(=O)(=O)CC4S3)c2)CC1 (stereo unspecified) |  |  | 7.31 µM [falling, single point]
7 | COc1ccc(CC(=O)Nc2sc3c(c2C#N)CC(C)(C)NC3(C)C)cc1OC | 27 |  | 29.1 µM [rising, single point]
8 | CCOc1ccc(/C=N/NC(=O)c2nnn(-c3nonc3N)c2-c2cccs2)cc1 | 4.89 |  | 4.11 µM [rising, full curve]
9 | CCOc1ccc(N2CC(C(=O)NC3CCCCCC3)CC2=O)cc1 (stereo unspecified) | -5.04 |  | 
10 | O=C1C2CCCN2C(c2ccccc2F)N1c1ccc(F)cc1 (stereo unspecified) |  | 0.82 µM [falling, single point] | 
11 | Cc1cc(NC(=O)C2(c3ccccc3)CCCC2)no1 | -14.9 |  | 1.84 µM [rising, partial curve]
12 | C#CCOCCOCCOCCNc1nc(N2CCN(C(=O)[C@H]([C@@H](C)O)n3cc(CCCCN)nn3)CC2)nc(N2CCN(C(=O)[C@H](CCCCN)n3cc(CCC(=O)O)nn3)CC2)n1 | -31.5 | 4.61 µM [falling, full curve, poor fit] | 3.26 µM [falling, full curve]
13 | O=C1OCC2=C1C(c1ccccc1)CC(=O)N2c1ccccc1 (stereo unspecified) | -28.2 |  | 29.1 µM [falling, single point]
14 | CCOC(=O)c1cnc(Nc2nc3ccccc3o2)nc1CN1CCN(C)CC1 | -20.3 |  | 
15 | CC1(C)O[C@@H]2[C@H](O1)[C@@H](COS(=O)(=O)O)O[C@H]2n1c(=S)[nH]c2c(=O)[nH]c(N)nc21 | 8.84 |  | 0.58 µM [rising, single point]
16 | O=C(CCn1nnnc1CN1CCOCC1)N1CCC(c2ccccc2F)C1 (stereo unspecified) | -3.44 |  | 20.6 µM [rising, single point]
17 | COc1ccc(-c2nnc(NC(=O)C3=COCCO3)o2)cc1 | 11 |  | 20.6 µM [rising, single point]
18 | Nc1ccc(C(=O)N2CCN(S(=O)(=O)c3ccc(Br)cc3)CC2)cc1[N+](=O)[O-] | -23.5 | 3.26 µM [rising, single point] | 
19 | CC(NCC(=O)Nc1cc(Cl)cc(Cl)c1)c1ccccc1 (stereo unspecified) | -62.9 | 25.9 µM [falling, single point] | 32.6 µM [falling, partial curve]
20 | Cc1ccc(N=Cc2c(O)c3ccccc3n(C)c2=O)cc1 | -52.4 | 29.1 µM [falling, single point] | 32.6 µM [falling, single point]
21 | CC1(C)C2CCC1(C)C(OCC[N+](C)(C)CC(=O)OC1CCCCC1)C2 (stereo unspecified) | -45.4 | 18.4 µM [falling, single point] | 18.4 µM [falling, single point]

Row | SMILES | cell number change [%] | AC50 [1] | AC50 [2]
22 | CCOc1ccc(S(=O)(=O)n2nc(C)cc2C)cc1 | 15.2 |  | 6.51 µM [falling, single point]
23 | CC1(C)CC(NC(=O)C(C)(C)Oc2ccc(Cl)cc2)CC(C)(C)N1 | 11.1 |  | 0.0082 µM [falling, full curve, poor fit]
24 | COc1ccccc1CNC(=O)CCCc1ccccc1 |  | 4.11 µM [rising, partial curve, poor fit] | 
25 | CCc1ccc(NC(=O)CSc2nnc(-c3cccs3)n2CC)cc1 |  | 3.66 µM [rising, partial curve] | 
26 | CN(C)c1cccc(C(=O)OC(C(=O)Nc2ccc(Cl)cc2C(F)(F)F)c2ccccc2)c1 (stereo unspecified) | 19.6 |  | 3.66 µM [rising, single point]
27 | C=C(C)C1CC=C(C)/C(=N/NC(=O)CCC(=O)Nc2ccccc2Cl)C1 (stereo unspecified) | 16.7 |  | 
28 | CCOC(=O)Cn1cc(/C=N/NC(=O)CC#N)c2ccccc21 | 15.5 |  | 1.84 µM [rising, partial curve]
29 | COc1ccccc1-n1c(C)cc(C=O)c1C | -36.4 | 0.731 µM [falling, full curve] | 
30 | COc1ccc([C@H]2CC(=O)C=C(c3ccc4c(c3)OCO4)C2)cc1OC | -8.96 |  | 6.51 µM [falling, single point]
31 | CC(C)Sc1ccccc1C(=O)Nc1ccc2c(c1)n(C)c(=O)n2C | 2.46 |  | 
32 | O=[N+]([O-])c1c(NCCO)cc(N2CCCCCC2)c2nonc12 | -8.45 |  | 6.51 µM [rising, single point]
33 | CCC(=O)c1cn(CCOc2ccccc2OC)c2ccccc12 | -25.5 |  | 0.651 µM [rising, single point]
34 | COc1ccccc1NC(=S)N1CCc2cc(OC)c(OC)cc2C1 | 53.1 | 7.31 µM [rising, partial curve] | 5.8 µM [rising, full curve]
35 | Cc1ccc(-n2c(SCC(=O)NCc3ccco3)nc3c(sc4ccccc43)c2=O)cc1 |  | 0.651 µM [rising, full curve, poor fit] | 
36 | O=C(COc1ccc(/C=N/NC(=O)C(=O)N2CCCCCC2)cc1)Nc1ccccc1Cl | -4.77 |  | 0.058 µM [falling, full curve, poor fit]
37 | O=C(Nn1cnnc1)c1ccc(Cl)cc1 | -16.1 |  | 0.164 µM [falling, full curve, poor fit]
38 | O=C(NC1CCCCC1)C(c1ccccn1)N(C(=O)c1csnn1)c1ccccc1F (stereo unspecified) | 13.9 |  | 
39 | O=C(CCC(=O)Nc1ccc(F)cc1)N/N=C/c1ccccc1O | 19.3 |  | 0.092 µM [falling, full curve, poor fit]
40 | COc1cc(OC)cc(C(=O)Nc2nc(-c3ccccc3)c(-c3ccccc3)o2)c1 | 16.7 |  | 5.8 µM [falling, partial curve]
41 | O=C(NCc1ccccc1CN1CCCC1)c1cc2ccccc2o1 | -2.89 |  | 
42 | CC1=CC(C/C(C)=C/COc2ccc3ccc(=O)oc3c2)OC1=O (stereo unspecified) | 3.42 |  | 0.0164 µM [rising, full curve, poor fit]

Quoted from the listing.
Under cell number change [%], CCOC(=O)Cn1cc(/C=N/NC(=O)CC#N)c2ccccc21 is listed with 15.5
Under cell number change [%], O=C(NC1CCCCC1)C(c1ccccn1)N(C(=O)c1csnn1)c1ccccc1F (stereo unspecified) is listed with 13.9
Under cell number change [%], O=C(NCc1ccccc1CN1CCCC1)c1cc2ccccc2o1 is listed with -2.89

The listing continues:

Row | SMILES | cell number change [%] | AC50 [1] | AC50 [2]
43 | FC(F)(F)Oc1ccc(-c2cn3cccnc3n2)cc1 |  | 0.58 µM [falling, full curve] | 0.651 µM [falling, full curve]
44 | N#CCc1c(C#N)c(N)nc(Nc2ccccc2)c1C#N | -15.5 |  | 1.3 µM [rising, full curve]
45 | CCn1c(CNS(=O)(=O)c2ccc(Cl)cc2)n[nH]c1=S | -106 | 18.4 µM [falling, partial curve, poor fit] | 6.51 µM [falling, single point]
46 | COc1ccccc1OCCNC(=O)Cc1ccc(S(=O)(=O)N2CCOCC2)s1 | -9.62 |  | 29.1 µM [rising, partial curve, poor fit]
47 | Cc1ccc(S(=O)(=O)CC(=O)N(CCCN2CCOCC2)c2nc3c(F)cccc3s2)cc1 | -29.7 |  | 
48 | O=C(NC1CC1)c1ccc(C2SCC(=O)N2Cc2ccccc2)cc1 (stereo unspecified) | -33.5 | 32.6 µM [falling, single point] | 29.1 µM [falling, single point]
49 | Cc1ccc(S(=O)(=O)Nc2ccc3c(c2)nc(CCN2CCN(c4ccccn4)CC2)n3C)cc1 |  |  | 20.6 µM [falling, single point]
50 | Cc1ccc(Nc2nc(C(=O)N3CCC(C(=O)NCc4ccccc4)CC3)cs2)cc1 | -23.6 |  | 
51 | COc1ccc(C(=O)COC(=O)c2cc([N+](=O)[O-])ccc2N2CCOCC2)c(OC)c1 | 156 | 11.6 µM [rising, partial curve] | 
52 | Cc1nn2cc(-c3ccc(Cl)cc3)cnc2c1Br | -70.8 | 29.1 µM [falling, single point] | 0.0651 µM [falling, full curve, poor fit]
53 | CC(C)(C)NC(=O)COc1ccc2oc3c(c2c1)CCCC3 | -1.59 |  | 
54 | CN(c1ccc(F)cc1)S(=O)(=O)c1ccc(Cl)c(C(=O)Nc2ccncc2)c1 |  |  | 6.51 µM [rising, single point]
55 | Cc1ccccc1N1CC(=O)N(c2ccccc2C)CC1=O | 12.9 |  | 
56 | CCOC(=O)c1c(-c2ccc(C)o2)csc1NC(=O)CN1CCCCC1 | 33.9 | 0.0116 µM [rising, full curve] | 
57 | O=C(NCc1ccco1)C1CCCN(S(=O)(=O)c2cccc3nsnc23)C1 (stereo unspecified) |  |  | 6.51 µM [rising, partial curve, poor fit]
58 | CCc1nc(NCCCn2ccnc2)c2oc3ccccc3c2n1 | 1.43 |  | 0.259 µM [rising, full curve]
59 | CN(C(=O)CN1C(=O)S/C(=C\c2ccccc2F)C1=O)C1CCS(=O)(=O)C1 (stereo unspecified) | 71.8 | 29.1 µM [rising, single point] | 
60 | CN(CC(=O)N1CCCC1)S(=O)(=O)c1ccc(Cl)cc1 | 4.75 |  | 
61 | O=C(CSc1nnc(-c2cccnc2)n1Cc1ccco1)N1CCc2ccccc21 | -15.7 |  | 0.146 µM [rising, full curve, poor fit]

Full records, quoted from the list:
`O=C(CCn1nnnc1CN1CCOCC1)N1CCC(c2ccccc2F)C1` (stereo unspecified) is listed with cell number change [%]: -3.44; AC50 [2]: 20.6 µM [rising, single point]
`O=[N+]([O-])c1c(NCCO)cc(N2CCCCCC2)c2nonc12` is listed with cell number change [%]: -8.45; AC50 [2]: 6.51 µM [rising, single point]

— PubChem BioAssay AID2685 (National Center for Advancing Translational Sciences (NCATS), 2010)
